According to publication PMC7819943, “Rice protein-binding microarrays: a tool to detect cis-acting elements near promoter regions in rice”:
The list shows a part of the results.

Target: T1, OsSMF1 (Oryza sativa, UniProt Q6ZLB0 1-436)
T1 sequence: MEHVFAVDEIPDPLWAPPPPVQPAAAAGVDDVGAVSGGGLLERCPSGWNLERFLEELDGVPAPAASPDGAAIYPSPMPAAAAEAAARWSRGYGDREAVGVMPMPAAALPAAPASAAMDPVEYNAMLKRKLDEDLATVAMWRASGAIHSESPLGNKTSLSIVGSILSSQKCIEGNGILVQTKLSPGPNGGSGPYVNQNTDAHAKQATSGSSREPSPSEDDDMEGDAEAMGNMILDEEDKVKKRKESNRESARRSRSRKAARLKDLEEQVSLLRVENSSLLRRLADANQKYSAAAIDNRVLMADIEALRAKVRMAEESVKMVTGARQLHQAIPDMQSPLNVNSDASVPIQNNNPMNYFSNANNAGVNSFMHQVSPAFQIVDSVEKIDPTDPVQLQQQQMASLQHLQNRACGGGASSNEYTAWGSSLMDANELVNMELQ
Assay: protein-binding microarray (RPBM); PBS, 2% BSA, 51.3 ng/ul salmon testes DNA, 50 uM zinc acetate, 200 nM TF, 25 C, 1 h; high values mean tight binding
Details: protein: recombinant; tags: N-terminal polyhistidine and DsRed monomer fusion (pET32a); chain copies: 2; label: CyDye5-dUTP incorporated in the synthesized complementary strand; 3' TTTTT single-stranded linker to array surface; dsDNA, one strand shown
In short: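 In PBS with 2% BSA, salmon testes DNA and 50 µM zinc acetate, 200 nM protein was incubated on a custom Agilent array at 25 °C for 1 h and then washed off. The array had been made double-stranded by primer extension with Cy5-dUTP and blocked with 2% BSA. The proteins were transcription factors fused N-terminally to polyhistidine and DsRed, expressed in E. coli BL21-CodonPlus and purified on Ni–NTA. The binding signal is per-feature fluorescence intensity (arbitrary units) from an Axon 4000B scanner.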

Sequence	binding signal
CCCCTGCTGATGTGTTGTGTCATCGTGTGCTTACGAGAAACGGAGTCACCTAGTGCAG	8010 fluorescence intensity (a.u.)
TCTCCGCCGTGCTGATCGCGTGGAGCCGAGGAGAGGAGCGCGGAGTCACCTAGTGCAG	3920 fluorescence intensity (a.u.)
TTAAACTGTCTACTATACGCGCGCGTGGAACAACCGATGGCGGAGTCACCTAGTGCAG	3280 fluorescence intensity (a.u.)
GGAAGCAGATCTTGTTGGAAATAATCTTGTCATTTGTGTGCGGAGTCACCTAGTGCAG	3700 fluorescence intensity (a.u.)
CCCTCGCCGCGCGGCGCCGCCGCCGCCGCGGTGGCCACCACGGAGTCACCTAGTGCAG	4520 fluorescence intensity (a.u.)
TCGACCGATACTTCGCCGTCGTCGCCGTATATGTCATGTCCGGAGTCACCTAGTGCAG	3660 fluorescence intensity (a.u.)
AAGGCTATGGTACTTGGGCCAAAACGTGTACAGATGCTCTCGGAGTCACCTAGTGCAG	3780 fluorescence intensity (a.u.)
GCTAGCCCCACCACGTAGTCAGAAATCATGGGTGTATCTGCGGAGTCACCTAGTGCAG	5270 fluorescence intensity (a.u.)
TAATACTGCTGGTAATCTGGCACCTTTTGGAAGTAAACTCCGGAGTCACCTAGTGCAG	3320 fluorescence intensity (a.u.)
CTGGGAGTGGAACGTTGCGTCGATGCACTCGTCAGCGGTCCGGAGTCACCTAGTGCAG	4670 fluorescence intensity (a.u.)
GAATGGTTGTTGATATGTTAGGATCAGCCACCTGACTTTGCGGAGTCACCTAGTGCAG	3300 fluorescence intensity (a.u.)
CAACATCCTGACATACACCTCACACACACTCCCCTTCTTGCGGAGTCACCTAGTGCAG	3160 fluorescence intensity (a.u.)
TGTACACGCGCAGGGCGGCCCTGGCGTTGCTGACGTGGCGCGGAGTCACCTAGTGCAG	42500 fluorescence intensity (a.u.)
TTATAAGAACAAATCCTGGGCAGTTGTATTGCCACATCAACGGAGTCACCTAGTGCAG	4220 fluorescence intensity (a.u.)
TGGTCCCACCTGTCATACACACATTACGTCTTAGAGTCCGCGGAGTCACCTAGTGCAG	4320 fluorescence intensity (a.u.)
AGGCGCGCGCGCGGCCATCGGCGCGACGTAATCAGCGTCCCGGAGTCACCTAGTGCAG	4280 fluorescence intensity (a.u.)
TTCAAACTGATTGTGACGTGTAACCAATTTCATTTGTCACCGGAGTCACCTAGTGCAG	18700 fluorescence intensity (a.u.)
CCGGAGCCAGTAGTAGCGTTGAGTCGTTGTCGCGAGATGGCGGAGTCACCTAGTGCAG	3260 fluorescence intensity (a.u.)
GAGCCGTGCGGCTCCGGCTCACTGGCTCCACACGTGGCGACGGAGTCACCTAGTGCAG	9770 fluorescence intensity (a.u.)
CTTTGCTTTGCGATTCGCGCTCTGACGTGCGCGGGATCGGCGGAGTCACCTAGTGCAG	6150 fluorescence intensity (a.u.)
TAACTGGCGTGTCAGTATTATCTTGCCACGTTACCCTAGCCGGAGTCACCTAGTGCAG	6380 fluorescence intensity (a.u.)

3 entries picked at random from the list so far, as already listed:
Sequence	binding signal
GAGCCGTGCGGCTCCGGCTCACTGGCTCCACACGTGGCGACGGAGTCACCTAGTGCAG	9770 fluorescence intensity (a.u.)
GCTAGCCCCACCACGTAGTCAGAAATCATGGGTGTATCTGCGGAGTCACCTAGTGCAG	5270 fluorescence intensity (a.u.)
TAACTGGCGTGTCAGTATTATCTTGCCACGTTACCCTAGCCGGAGTCACCTAGTGCAG	6380 fluorescence intensity (a.u.)

The list continues.

Sequence	binding signal
AATTACACCGAAGGTCCCTCAACTTGTCATCGGGATAAAACGGAGTCACCTAGTGCAG	31200 fluorescence intensity (a.u.)
TCCCCACATCACCCAACACGAGCTCACCACCACCACCACCCGGAGTCACCTAGTGCAG	3500 fluorescence intensity (a.u.)
GTGTTTCTGACATGCTATGAAATGACTCCTGGTCGACATGCGGAGTCACCTAGTGCAG	3500 fluorescence intensity (a.u.)
TCTCCTCCGCCGTCGCGCCACGTCCCGCACAGCGCTCCTCCGGAGTCACCTAGTGCAG	8160 fluorescence intensity (a.u.)
AGCAGTGGCAAACTTCTCAGTCATGTCCATGTCATCAGGCCGGAGTCACCTAGTGCAG	13900 fluorescence intensity (a.u.)
CCACGGGTTCTTCCTCGATGCCTTCTCCGGCGCCGTCCGGCGGAGTCACCTAGTGCAG	45300 fluorescence intensity (a.u.)
CGTGGTTGCTACAGCGCTACACGTTCGCGTTTTGCACGCGCGGAGTCACCTAGTGCAG	3180 fluorescence intensity (a.u.)
CTGGTTGCGGCTGCGCTTTTCGGCACTGTCGGTGTCAGCTCGGAGTCACCTAGTGCAG	3600 fluorescence intensity (a.u.)
ATTTCCCCGAGGTCCACGAAGCGATCCACGTAGTACTACTCGGAGTCACCTAGTGCAG	5120 fluorescence intensity (a.u.)
ACAATATCATGGGCTTATCACTAAAACACACCTTTTAGAACGGAGTCACCTAGTGCAG	22600 fluorescence intensity (a.u.)
TATGTACACTGCGTGCTACGAGCCAATGACGTGTAGCCTACGGAGTCACCTAGTGCAG	13700 fluorescence intensity (a.u.)
TTGTTCCTCCTGTTGTCGCTCTGGAGAGTGGAGAGCTCTTCGGAGTCACCTAGTGCAG	24400 fluorescence intensity (a.u.)
GCCGACCAGCTCTGGATGCTGCGCGACGCGTGGCCACGACCGGAGTCACCTAGTGCAG	4010 fluorescence intensity (a.u.)
TAGGGCTATGAAAATGGCCATGTGAGTCATGACACTCTGACGGAGTCACCTAGTGCAG	8980 fluorescence intensity (a.u.)
CAGCTGCGTAGCCATCACCGCCTGCGTCGCAGAGAGGGCCCGGAGTCACCTAGTGCAG	3200 fluorescence intensity (a.u.)
CGACGATGATGATGATGATGACGATGACGAAGAAGATGGCCGGAGTCACCTAGTGCAG	3340 fluorescence intensity (a.u.)
CTCCTGCGCGGCCACGTCTCACCTACCACCACCTTACCCTCGGAGTCACCTAGTGCAG	4120 fluorescence intensity (a.u.)
AACTTCTGCTGTCTCTGTTAGGATTATGACGTTGCTAATTCGGAGTCACCTAGTGCAG	3900 fluorescence intensity (a.u.)
AACACAGTCGCCGCACACATGACACGCACGAACGCCTCTCCGGAGTCACCTAGTGCAG	4940 fluorescence intensity (a.u.)
CGTTTCAAATTTCATCCTTCCCCGTAAAGAATTCGTATTCCGGAGTCACCTAGTGCAG	20600 fluorescence intensity (a.u.)
TAGTAACCAACAACACACGTGTGTTCCAGAGGCTTCAACCCGGAGTCACCTAGTGCAG	4520 fluorescence intensity (a.u.)
